Data as given in the supplement of paper PMC10849652.
The list shows a part of the results.

By UniProt entry, the sequences of proteins in these tests, tags left out. Where a name states a change or a piece, a line headed by the entry shows the natural chain unless it says otherwise.
UniProt Q13733, whole entry, looked up: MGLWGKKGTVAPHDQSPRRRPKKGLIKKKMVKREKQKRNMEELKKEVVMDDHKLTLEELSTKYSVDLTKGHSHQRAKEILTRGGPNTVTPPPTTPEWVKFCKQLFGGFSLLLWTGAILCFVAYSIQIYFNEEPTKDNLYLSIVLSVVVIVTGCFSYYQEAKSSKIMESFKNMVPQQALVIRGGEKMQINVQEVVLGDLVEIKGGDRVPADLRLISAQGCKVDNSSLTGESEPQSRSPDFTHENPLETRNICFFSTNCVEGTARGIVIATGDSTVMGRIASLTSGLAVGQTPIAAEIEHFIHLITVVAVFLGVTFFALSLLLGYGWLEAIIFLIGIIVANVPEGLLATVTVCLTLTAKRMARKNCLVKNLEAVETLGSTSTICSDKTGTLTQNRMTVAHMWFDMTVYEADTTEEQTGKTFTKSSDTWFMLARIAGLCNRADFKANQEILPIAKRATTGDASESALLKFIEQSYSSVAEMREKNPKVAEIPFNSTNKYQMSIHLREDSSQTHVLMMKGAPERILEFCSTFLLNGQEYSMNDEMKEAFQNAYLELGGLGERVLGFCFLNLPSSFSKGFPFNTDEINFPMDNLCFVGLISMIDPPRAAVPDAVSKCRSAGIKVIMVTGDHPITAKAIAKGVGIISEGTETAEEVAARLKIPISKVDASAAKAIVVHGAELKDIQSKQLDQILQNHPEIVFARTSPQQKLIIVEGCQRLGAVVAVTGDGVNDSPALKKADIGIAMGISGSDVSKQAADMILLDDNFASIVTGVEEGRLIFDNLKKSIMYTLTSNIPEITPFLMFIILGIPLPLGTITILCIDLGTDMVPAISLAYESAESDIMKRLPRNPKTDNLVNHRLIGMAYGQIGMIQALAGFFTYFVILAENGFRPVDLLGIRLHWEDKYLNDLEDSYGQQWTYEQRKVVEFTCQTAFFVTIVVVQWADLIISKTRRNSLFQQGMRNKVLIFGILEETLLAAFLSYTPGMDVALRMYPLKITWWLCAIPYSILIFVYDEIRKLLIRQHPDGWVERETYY
UniProt Q9UII2: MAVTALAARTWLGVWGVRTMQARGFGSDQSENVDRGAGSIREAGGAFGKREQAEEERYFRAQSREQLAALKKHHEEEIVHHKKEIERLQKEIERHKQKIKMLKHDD
UniProt L0R819, whole entry, looked up: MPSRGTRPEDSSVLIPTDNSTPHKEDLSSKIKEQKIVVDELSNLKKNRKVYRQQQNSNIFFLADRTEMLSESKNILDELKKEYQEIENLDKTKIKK
UniProt O95352: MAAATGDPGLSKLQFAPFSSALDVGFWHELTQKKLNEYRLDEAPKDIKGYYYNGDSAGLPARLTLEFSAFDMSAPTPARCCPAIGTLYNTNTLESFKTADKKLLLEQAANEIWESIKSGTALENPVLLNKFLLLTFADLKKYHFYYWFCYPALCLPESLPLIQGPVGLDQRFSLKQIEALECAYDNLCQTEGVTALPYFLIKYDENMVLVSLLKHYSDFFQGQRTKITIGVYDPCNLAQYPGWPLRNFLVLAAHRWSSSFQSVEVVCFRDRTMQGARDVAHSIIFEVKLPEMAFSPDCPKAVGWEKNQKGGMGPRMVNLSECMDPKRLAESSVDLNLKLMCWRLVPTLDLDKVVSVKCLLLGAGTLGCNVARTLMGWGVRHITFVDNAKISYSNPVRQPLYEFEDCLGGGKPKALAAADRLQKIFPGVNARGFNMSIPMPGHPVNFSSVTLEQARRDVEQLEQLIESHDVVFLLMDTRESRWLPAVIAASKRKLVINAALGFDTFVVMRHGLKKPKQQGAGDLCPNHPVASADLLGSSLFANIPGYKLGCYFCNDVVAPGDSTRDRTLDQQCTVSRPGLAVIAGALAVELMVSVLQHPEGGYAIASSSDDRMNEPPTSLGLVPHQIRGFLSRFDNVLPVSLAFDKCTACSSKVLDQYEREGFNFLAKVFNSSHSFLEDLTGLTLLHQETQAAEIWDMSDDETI
UniProt P54252: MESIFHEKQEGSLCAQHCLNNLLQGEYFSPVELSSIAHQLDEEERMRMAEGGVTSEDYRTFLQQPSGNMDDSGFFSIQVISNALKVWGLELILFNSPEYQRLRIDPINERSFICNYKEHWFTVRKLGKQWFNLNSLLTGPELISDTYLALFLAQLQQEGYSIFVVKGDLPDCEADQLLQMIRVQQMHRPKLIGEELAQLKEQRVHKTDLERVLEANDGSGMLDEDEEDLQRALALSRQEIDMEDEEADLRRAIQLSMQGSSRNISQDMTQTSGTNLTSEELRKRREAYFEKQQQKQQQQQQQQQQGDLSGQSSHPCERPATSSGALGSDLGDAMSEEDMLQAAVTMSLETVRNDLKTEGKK
UniProt O00244: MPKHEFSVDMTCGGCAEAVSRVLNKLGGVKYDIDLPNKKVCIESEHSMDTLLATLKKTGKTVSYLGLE
UniProt Q96A05, whole entry, looked up: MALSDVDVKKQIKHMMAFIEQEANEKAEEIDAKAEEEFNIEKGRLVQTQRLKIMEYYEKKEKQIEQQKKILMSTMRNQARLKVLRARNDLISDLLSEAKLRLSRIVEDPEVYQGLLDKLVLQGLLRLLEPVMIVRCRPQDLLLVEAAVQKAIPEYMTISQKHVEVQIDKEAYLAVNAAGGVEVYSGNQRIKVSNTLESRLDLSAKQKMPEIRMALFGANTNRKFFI
UniProt P61769, whole entry, looked up: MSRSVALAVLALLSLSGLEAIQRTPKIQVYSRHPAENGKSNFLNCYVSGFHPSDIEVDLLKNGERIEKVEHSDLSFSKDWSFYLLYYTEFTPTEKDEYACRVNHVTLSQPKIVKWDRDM
UniProt Q8WYN0: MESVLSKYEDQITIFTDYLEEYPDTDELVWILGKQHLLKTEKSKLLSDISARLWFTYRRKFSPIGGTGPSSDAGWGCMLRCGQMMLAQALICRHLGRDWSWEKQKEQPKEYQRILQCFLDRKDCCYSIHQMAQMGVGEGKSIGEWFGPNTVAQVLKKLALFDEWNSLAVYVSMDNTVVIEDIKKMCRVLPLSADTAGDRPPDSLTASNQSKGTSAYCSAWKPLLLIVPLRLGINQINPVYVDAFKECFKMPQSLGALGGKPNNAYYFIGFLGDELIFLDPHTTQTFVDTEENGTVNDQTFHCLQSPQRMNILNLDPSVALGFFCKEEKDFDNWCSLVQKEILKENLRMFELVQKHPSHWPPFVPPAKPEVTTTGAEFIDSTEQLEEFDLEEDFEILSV
UniProt P48047: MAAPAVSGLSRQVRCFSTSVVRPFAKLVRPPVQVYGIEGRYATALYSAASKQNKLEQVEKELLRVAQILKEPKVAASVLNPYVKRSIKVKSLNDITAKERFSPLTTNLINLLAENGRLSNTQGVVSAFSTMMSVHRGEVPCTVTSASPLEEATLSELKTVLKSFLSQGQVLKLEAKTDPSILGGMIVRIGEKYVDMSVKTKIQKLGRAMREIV
UniProt Q9Y487, whole entry, looked up: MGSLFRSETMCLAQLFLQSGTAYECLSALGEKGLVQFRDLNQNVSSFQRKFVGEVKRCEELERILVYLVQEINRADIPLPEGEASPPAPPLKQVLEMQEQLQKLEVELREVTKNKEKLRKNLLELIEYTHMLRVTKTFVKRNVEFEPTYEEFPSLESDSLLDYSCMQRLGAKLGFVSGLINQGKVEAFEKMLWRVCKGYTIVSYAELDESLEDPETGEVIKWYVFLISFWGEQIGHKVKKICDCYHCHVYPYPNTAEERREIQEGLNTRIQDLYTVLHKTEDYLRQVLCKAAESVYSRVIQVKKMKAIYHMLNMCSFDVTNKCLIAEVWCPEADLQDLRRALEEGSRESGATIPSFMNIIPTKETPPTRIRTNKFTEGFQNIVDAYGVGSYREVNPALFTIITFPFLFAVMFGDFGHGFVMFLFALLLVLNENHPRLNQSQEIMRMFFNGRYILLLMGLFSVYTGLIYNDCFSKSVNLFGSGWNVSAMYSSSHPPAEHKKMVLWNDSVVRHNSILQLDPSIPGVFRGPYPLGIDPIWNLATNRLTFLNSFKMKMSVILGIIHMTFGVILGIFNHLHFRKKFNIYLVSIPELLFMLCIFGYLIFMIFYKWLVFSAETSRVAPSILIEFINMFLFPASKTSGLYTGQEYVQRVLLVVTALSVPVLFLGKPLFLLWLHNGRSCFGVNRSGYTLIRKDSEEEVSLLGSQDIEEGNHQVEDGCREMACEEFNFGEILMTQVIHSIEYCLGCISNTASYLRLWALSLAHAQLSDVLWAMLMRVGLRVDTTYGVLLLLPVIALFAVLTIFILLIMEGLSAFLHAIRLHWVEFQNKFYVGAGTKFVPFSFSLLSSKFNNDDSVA
UniProt Q93050, whole entry, looked up: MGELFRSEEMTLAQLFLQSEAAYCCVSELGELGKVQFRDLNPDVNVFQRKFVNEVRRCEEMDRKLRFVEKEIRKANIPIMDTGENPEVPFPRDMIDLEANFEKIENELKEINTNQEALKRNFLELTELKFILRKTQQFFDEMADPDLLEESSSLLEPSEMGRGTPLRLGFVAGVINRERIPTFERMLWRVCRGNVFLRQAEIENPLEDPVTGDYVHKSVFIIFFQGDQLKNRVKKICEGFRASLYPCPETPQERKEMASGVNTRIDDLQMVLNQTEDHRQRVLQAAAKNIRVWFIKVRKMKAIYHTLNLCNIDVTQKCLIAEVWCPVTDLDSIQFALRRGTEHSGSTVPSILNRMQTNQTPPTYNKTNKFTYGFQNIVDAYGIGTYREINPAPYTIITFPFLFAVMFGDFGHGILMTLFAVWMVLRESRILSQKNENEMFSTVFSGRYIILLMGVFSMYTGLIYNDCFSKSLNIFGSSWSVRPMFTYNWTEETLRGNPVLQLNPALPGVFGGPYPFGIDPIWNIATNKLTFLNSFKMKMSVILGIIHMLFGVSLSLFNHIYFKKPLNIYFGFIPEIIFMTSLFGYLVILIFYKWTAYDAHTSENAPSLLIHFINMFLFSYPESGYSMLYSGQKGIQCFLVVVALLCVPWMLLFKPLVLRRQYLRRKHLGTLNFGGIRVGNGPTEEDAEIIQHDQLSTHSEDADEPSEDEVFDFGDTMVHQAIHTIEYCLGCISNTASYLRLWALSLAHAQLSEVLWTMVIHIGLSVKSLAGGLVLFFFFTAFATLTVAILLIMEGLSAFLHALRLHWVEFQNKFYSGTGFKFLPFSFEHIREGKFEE
UniProt O75348, whole entry, looked up: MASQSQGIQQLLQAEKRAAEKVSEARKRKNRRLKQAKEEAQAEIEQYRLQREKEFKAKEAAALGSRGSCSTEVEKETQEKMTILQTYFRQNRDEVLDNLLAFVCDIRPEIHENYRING
UniProt Q9BZE9, whole entry, looked up: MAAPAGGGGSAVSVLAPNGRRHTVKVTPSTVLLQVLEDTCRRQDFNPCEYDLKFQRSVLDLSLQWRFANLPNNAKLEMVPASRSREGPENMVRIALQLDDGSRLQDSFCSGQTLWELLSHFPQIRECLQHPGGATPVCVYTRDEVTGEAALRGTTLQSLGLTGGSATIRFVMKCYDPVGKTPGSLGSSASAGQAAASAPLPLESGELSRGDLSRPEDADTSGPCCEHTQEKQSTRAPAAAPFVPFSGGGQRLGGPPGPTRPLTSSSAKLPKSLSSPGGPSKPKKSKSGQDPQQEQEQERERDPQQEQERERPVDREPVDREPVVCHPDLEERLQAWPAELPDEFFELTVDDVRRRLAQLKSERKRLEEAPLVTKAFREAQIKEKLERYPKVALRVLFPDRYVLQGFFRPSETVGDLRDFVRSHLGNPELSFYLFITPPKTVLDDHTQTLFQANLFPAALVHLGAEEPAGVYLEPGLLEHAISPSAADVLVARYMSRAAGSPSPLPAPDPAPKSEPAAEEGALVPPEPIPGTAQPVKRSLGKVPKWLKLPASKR
UniProt Q9H6S1, whole entry, looked up: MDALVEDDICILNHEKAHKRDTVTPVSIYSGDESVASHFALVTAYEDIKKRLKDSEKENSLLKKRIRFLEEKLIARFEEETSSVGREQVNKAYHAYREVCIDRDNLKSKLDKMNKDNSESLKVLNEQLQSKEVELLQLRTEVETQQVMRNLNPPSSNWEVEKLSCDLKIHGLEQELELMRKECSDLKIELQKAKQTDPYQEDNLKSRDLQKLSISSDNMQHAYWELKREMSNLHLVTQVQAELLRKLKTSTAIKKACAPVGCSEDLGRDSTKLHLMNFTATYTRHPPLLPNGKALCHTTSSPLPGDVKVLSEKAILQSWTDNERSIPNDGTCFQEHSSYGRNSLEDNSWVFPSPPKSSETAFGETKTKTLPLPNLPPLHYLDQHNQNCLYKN

What was measured:
Assay in all cases: log2 fold change, soluble protein after heating vs DMSO (PISA); higher = thermal stabilisation; K562 lysate, 10 uM; active = over 0.2 and 3.5 SD of the protein, either way, in both replicates (recomputed)
vemurafenib = compound: CCCS(=O)(=O)Nc1ccc(F)c(C(=O)c2c[nH]c3ncc(-c4ccc(Cl)cc4)cc23)c1F [vemurafenib]
Procedure, shortened: (§1)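 Thermal stability, expressed as log-two fold change relative to solvent controls, is given from duplicates. Crude K562 extract in PBS pH 7.4 with 1 mM MgCl2, at 1 mg/mL protein, was treated with 10 μM compound for 30 min and heated in aliquots for 3 min across 48°C-58°C. After pooling, adjustment to 0.5% NP-40 at 4°C and centrifugation at 21,000xg for 90 min, supernatant protein was measured by TMTpro 16plex LC-MS/MS with channel sums equalised.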

[1] = compound: CCCS(=O)(=O)Nc1ccc(F)c(C(=O)c2c[nH]c3ncc(Cl)cc23)c1F
Procedure, shortened: as §1

barasertib = compound: CCN(CCCOc1ccc2c(Nc3cc(CC(=O)Nc4cccc(F)c4)[nH]n3)ncnc2c1)CCOP(=O)(O)O [barasertib]
Procedure, shortened: as §1

[2] = compound: CC[C@@H]1C(=O)N(C)c2cnc(Nc3ccc(C(=O)NC4CCN(C)CC4)cc3OC)nc2N1C1CCCC1
Procedure, shortened: as §1

volasertib = compound: CC[C@@H]1C(=O)N(C)c2cnc(Nc3ccc(C(=O)N[C@H]4CC[C@H](N5CCN(CC6CC6)CC5)CC4)cc3OC)nc2N1C(C)C [volasertib]
Procedure, shortened: as §1

[3] = compound: CCn1c(C(=O)N(C2CC2)C2CC2)cc2c3c(ncn3C)c(Nc3cc(C)n(C)n3)nc21
Procedure, shortened: as §1

[4] = compound: CCn1cc(-c2ccnc3[nH]c(-c4cccc(CN(C)C)c4)cc23)c(-c2ccc(NC(=O)N(C)C)cc2)n1
Procedure, shortened: as §1

[5] = compound: CN1CCC(CNc2ccc3ncc(-c4cccc(OC(F)(F)F)c4)n3n2)CC1
Procedure, shortened: as §1

saracatinib = compound: CN1CCN(CCOc2cc(OC3CCOCC3)c3c(Nc4c(Cl)ccc5c4OCO5)ncnc3c2)CC1 [saracatinib]
Procedure, shortened: as §1

sotrastaurin = compound: CN1CCN(c2nc(C3=C(c4c[nH]c5ccccc45)C(=O)NC3=O)c3ccccc3n2)CC1 [sotrastaurin]
Procedure, shortened: as §1

alvocidib = compound: CN1CC[C@H](c2c(O)cc(O)c3c(=O)cc(-c4ccccc4Cl)oc23)[C@H](O)C1 [alvocidib]
Procedure, shortened: as §1

Tubastatin A = compound: CN1CCc2c(c3ccccc3n2Cc2ccc(C(=O)NO)cc2)C1 [Tubastatin A]
Procedure, shortened: as §1

[6] = compound: CNC(=O)C1=CC=CC=C1NC2=NC(=NC=C2Cl)NC3=C(C=C(C=C3)N4CCOCC4)OC
Procedure, shortened: as §1

defactinib = compound: CNC(=O)c1ccc(Nc2ncc(C(F)(F)F)c(NCc3nccnc3N(C)S(C)(=O)=O)n2)cc1 [defactinib]
Procedure, shortened: as §1

[7] = compound: CNc1nc(-c2ccc3c(N)n[nH]c3c2)cc(N2C[C@@H](C(=O)NC3CCCCC3)CC[C@H]2C)n1
Procedure, shortened: as §1

encorafenib = compound: COC(=O)N[C@@H](C)CNc1nccc(-c2cn(C(C)C)nc2-c2cc(Cl)cc(NS(C)(=O)=O)c2F)n1 [encorafenib]
Procedure, shortened: as §1

[8] = compound: COC(=O)[C@H](CCSC)NC(=O)C1=C(C=C(C=C1)NC[C@H](CS)N)C2=CC=CC=C2
Procedure, shortened: as §1

alisertib = compound: COc1cc(Nc2ncc3c(n2)-c2ccc(Cl)cc2C(c2c(F)cccc2OC)=NC3)ccc1C(=O)O [alisertib]
Procedure, shortened: as §1

[9] = compound: COc1cc2nc(-c3cc(F)ccc3O)nc(N[C@@H]3CNC[C@H]3C(C)(C)O)c2cc1OC
Procedure, shortened: as §1

gefitinib = compound: COc1cc2ncnc(Nc3ccc(F)c(Cl)c3)c2cc1OCCCN1CCOCC1 [gefitinib]
Procedure, shortened: as §1

Measured: log2 fold change

ATP1A4 (UniProt Q13733)
inactive: vemurafenib -0.036 | [1] 0 | barasertib -0.021 | [2] -0.045 | volasertib 0.002 | [3] 0.016 | [4] -0.024 | [5] 0.08 | saracatinib -0.023 | sotrastaurin -0.023 | alvocidib -0.018 | Tubastatin A 0.01 | [6] -0.064 | defactinib 0.018 | [7] -0.015 | encorafenib -0.023 | [8] 0 | alisertib -0.023 | [9] 0.021 | gefitinib 0.04

ATP5IF1 (UniProt Q9UII2)
inactive: vemurafenib 0.024 | [1] -0.047 | barasertib -0.033 | [2] 0.064 | volasertib 0.054 | [3] -0.031 | [4] 0.038 | [5] 0.084 | saracatinib -0.034 | sotrastaurin -0.043 | alvocidib 0.004 | Tubastatin A 0.031 | [6] -0.034 | defactinib -0.022 | [7] 0.042 | encorafenib -0.003 | [8] 0.002 | alisertib -0.012 | [9] 0.015 | gefitinib -0.022

ASDURF (UniProt L0R819)
inactive: vemurafenib -0.023 | [1] -0.006 | barasertib -0.032 | [2] 0.019 | volasertib 0.024 | [3] 0.02 | [4] 0.051 | [5] -0.05 | saracatinib -0.002 | sotrastaurin 0.035 | alvocidib 0.071 | Tubastatin A 0.001 | [6] -0.073 | defactinib 0.04 | [7] -0.009 | encorafenib -0.019 | [8] 0.06 | alisertib 0.013 | [9] 0.003 | gefitinib 0.006

ATG7 (UniProt O95352)
inactive: vemurafenib -0.031 | [1] 0.014 | barasertib -0.002 | [2] -0.032 | volasertib -0.052 | [3] 0.021 | [4] -0.058 | [5] 0.091 | saracatinib -0.003 | sotrastaurin 0.037 | alvocidib 0.01 | Tubastatin A -0.075 | [6] 0.001 | defactinib 0.012 | [7] -0.04 | encorafenib 0.021 | [8] -0.031 | alisertib 0.006 | [9] -0.008 | gefitinib 0.019

ATP1A1 (UniProt P05023)
inactive: vemurafenib -0.021 | [1] -0.006 | barasertib -0.034 | [2] 0.031 | volasertib 0.025 | [3] -0.015 | [4] 0.057 | [5] 0 | saracatinib -0.021 | sotrastaurin -0.038 | alvocidib 0.025 | Tubastatin A 0.038 | [6] -0.002 | defactinib -0.006 | [7] -0.005 | encorafenib 0.001 | [8] -0.019 | alisertib -0.012 | [9] 0.004 | gefitinib -0.004

2 neighbouring records out of the list so far:
ATP5IF1 (UniProt Q9UII2)
inactive: vemurafenib 0.024 | [1] -0.047 | barasertib -0.033 | [2] 0.064 | volasertib 0.054 | [3] -0.031 | [4] 0.038 | [5] 0.084 | saracatinib -0.034 | sotrastaurin -0.043 | alvocidib 0.004 | Tubastatin A 0.031 | [6] -0.034 | defactinib -0.022 | [7] 0.042 | encorafenib -0.003 | [8] 0.002 | alisertib -0.012 | [9] 0.015 | gefitinib -0.022

ASDURF (UniProt L0R819)
inactive: vemurafenib -0.023 | [1] -0.006 | barasertib -0.032 | [2] 0.019 | volasertib 0.024 | [3] 0.02 | [4] 0.051 | [5] -0.05 | saracatinib -0.002 | sotrastaurin 0.035 | alvocidib 0.071 | Tubastatin A 0.001 | [6] -0.073 | defactinib 0.04 | [7] -0.009 | encorafenib -0.019 | [8] 0.06 | alisertib 0.013 | [9] 0.003 | gefitinib 0.006

Later entries.

ATXN3 isoform 1 (UniProt P54252)
inactive: vemurafenib -0.029 | [1] -0.002 | barasertib 0.042 | [2] -0.01 | volasertib -0.032 | [3] -0.034 | [4] 0.058 | [5] -0.025 | saracatinib 0.057 | sotrastaurin 0.027 | alvocidib -0.015 | Tubastatin A 0.019 | [6] -0.006 | defactinib 0.014 | [7] -0.029 | encorafenib 0.041 | [8] 0.009 | alisertib -0.033 | [9] -0.042 | gefitinib -0.013

ATOX1 (UniProt O00244)
inactive: vemurafenib -0.003 | [1] -0.006 | barasertib 0.092 | [2] 0.028 | volasertib 0.034 | [3] -0.054 | [4] -0.092 | [5] -0.034 | saracatinib 0.056 | sotrastaurin -0.036 | alvocidib 0.101 | Tubastatin A 0.055 | [6] 0.027 | defactinib 0.023 | [7] 0.108 | encorafenib -0.048 | [8] -0.031 | alisertib -0.017 | [9] 0.017 | gefitinib -0.143

ATP6V1E2 (UniProt Q96A05)
inactive: vemurafenib 0.033 | [1] 0 | barasertib -0.008 | [2] 0.095 | volasertib 0.015 | [3] 0.023 | [4] -0.113 | [5] 0.081 | saracatinib 0.017 | sotrastaurin -0.021 | alvocidib -0.01 | Tubastatin A 0.052 | [6] -0.014 | defactinib 0.024 | [7] 0.143 | encorafenib 0.027 | [8] 0.022 | alisertib 0.021 | [9] 0.01 | gefitinib -0.059

B2M (UniProt P61769)
inactive: vemurafenib 0.053 | [1] -0.037 | barasertib 0.126 | [2] 0 | volasertib 0.025 | [3] -0.033 | [4] -0.029 | [5] -0.082 | saracatinib 0.054 | sotrastaurin -0.051 | alvocidib 0.035 | Tubastatin A 0.02 | [6] 0.061 | defactinib -0.02 | [7] 0.014 | encorafenib -0.002 | [8] -0.034 | alisertib 0.044 | [9] 0.006 | gefitinib -0.055

ATG4A (UniProt Q8WYN0)
inactive: vemurafenib -0.045 | [1] 0.033 | barasertib 0.012 | [2] -0.047 | volasertib -0.015 | [3] 0.008 | [4] 0.027 | [5] -0.045 | saracatinib 0.034 | sotrastaurin -0.043 | alvocidib 0 | Tubastatin A -0.104 | [6] 0.042 | defactinib 0.036 | [7] 0.01 | encorafenib 0.037 | [8] -0.087 | alisertib -0.016 | [9] -0.001 | gefitinib 0.052

ATP5PO (UniProt P48047)
inactive: vemurafenib -0.013 | [1] -0.01 | barasertib -0.024 | [2] 0.021 | volasertib 0.031 | [3] 0.015 | [4] 0.02 | [5] -0.009 | saracatinib -0.013 | sotrastaurin -0.015 | alvocidib 0.068 | Tubastatin A -0.001 | [6] -0.011 | defactinib 0.012 | [7] 0.014 | encorafenib -0.032 | [8] -0.043 | alisertib -0.007 | [9] 0.006 | gefitinib 0.007

ATP6V0A2 (UniProt Q9Y487)
inactive: vemurafenib -0.035 | [1] 0.013 | barasertib 0.037 | [2] 0.071 | volasertib 0.005 | [3] 0.017 | [4] -0.117 | [5] 0.14 | saracatinib -0.007 | sotrastaurin 0.029 | alvocidib -0.129 | Tubastatin A 0.091 | [6] 0.022 | defactinib 0.008 | [7] 0.001 | encorafenib 0.03 | [8] -0.027 | alisertib 0.015 | [9] 0.048 | gefitinib 0.036

ATP6V0A1 isoform 3 (UniProt Q93050)
inactive: vemurafenib 0.019 | [1] -0.004 | barasertib 0.023 | [2] -0.02 | volasertib 0.011 | [3] -0.013 | [4] -0.071 | [5] 0.095 | saracatinib -0.031 | sotrastaurin -0.045 | alvocidib -0.03 | Tubastatin A 0.086 | [6] -0.005 | defactinib 0.004 | [7] 0.004 | encorafenib 0.003 | [8] -0.011 | alisertib -0.015 | [9] 0.051 | gefitinib 0.014

ATP6V1G1 (UniProt O75348)
inactive: vemurafenib -0.008 | [1] 0.008 | barasertib -0.016 | [2] 0.025 | volasertib 0.02 | [3] -0.005 | [4] -0.024 | [5] -0.001 | saracatinib -0.022 | sotrastaurin -0.04 | alvocidib 0.008 | Tubastatin A 0.052 | [6] 0.011 | defactinib -0.005 | [7] 0.038 | encorafenib -0.03 | [8] 0.006 | alisertib 0.017 | [9] 0.013 | gefitinib 0.065

ASPSCR1 (UniProt Q9BZE9)
inactive: vemurafenib -0.029 | [1] 0.003 | barasertib 0.018 | [2] 0.019 | volasertib -0.029 | [3] -0.004 | [4] 0.019 | [5] 0.001 | saracatinib 0.009 | sotrastaurin 0.02 | alvocidib -0.031 | Tubastatin A -0.023 | [6] 0.053 | defactinib 0.037 | [7] -0.019 | encorafenib -0.016 | [8] 0.001 | alisertib -0.017 | [9] -0.006 | gefitinib -0.037

AZI2 (UniProt Q9H6S1)
inactive: vemurafenib 0.019 | [1] -0.055 | barasertib 0.115 | [2] 0.032 | volasertib 0.092 | [3] -0.011 | [4] 0.122 | [5] -0.087 | saracatinib 0.009 | sotrastaurin 0.072 | alvocidib 0.188 | Tubastatin A 0.01 | [6] 0.114 | defactinib 0.08 | [7] 0.022 | encorafenib -0.029 | [8] 0.005 | alisertib 0.06 | [9] -0.048 | gefitinib -0.08
